Measurements: article PMC3383674
These are yes or no findings as the source states them, for the method shown. Binding seen in cells or lysates may run through a third protein. Some results given as binding are weak or reduced against the parent protein; the word gives no strength. For some assays here: Sequences can lack the tags named with a protein.

Sequences of proteins named here, by UniProt entry; tags and fusion partners are left off. A change or cut given only in a name is not applied to a line headed by its entry.
UniProt P39940: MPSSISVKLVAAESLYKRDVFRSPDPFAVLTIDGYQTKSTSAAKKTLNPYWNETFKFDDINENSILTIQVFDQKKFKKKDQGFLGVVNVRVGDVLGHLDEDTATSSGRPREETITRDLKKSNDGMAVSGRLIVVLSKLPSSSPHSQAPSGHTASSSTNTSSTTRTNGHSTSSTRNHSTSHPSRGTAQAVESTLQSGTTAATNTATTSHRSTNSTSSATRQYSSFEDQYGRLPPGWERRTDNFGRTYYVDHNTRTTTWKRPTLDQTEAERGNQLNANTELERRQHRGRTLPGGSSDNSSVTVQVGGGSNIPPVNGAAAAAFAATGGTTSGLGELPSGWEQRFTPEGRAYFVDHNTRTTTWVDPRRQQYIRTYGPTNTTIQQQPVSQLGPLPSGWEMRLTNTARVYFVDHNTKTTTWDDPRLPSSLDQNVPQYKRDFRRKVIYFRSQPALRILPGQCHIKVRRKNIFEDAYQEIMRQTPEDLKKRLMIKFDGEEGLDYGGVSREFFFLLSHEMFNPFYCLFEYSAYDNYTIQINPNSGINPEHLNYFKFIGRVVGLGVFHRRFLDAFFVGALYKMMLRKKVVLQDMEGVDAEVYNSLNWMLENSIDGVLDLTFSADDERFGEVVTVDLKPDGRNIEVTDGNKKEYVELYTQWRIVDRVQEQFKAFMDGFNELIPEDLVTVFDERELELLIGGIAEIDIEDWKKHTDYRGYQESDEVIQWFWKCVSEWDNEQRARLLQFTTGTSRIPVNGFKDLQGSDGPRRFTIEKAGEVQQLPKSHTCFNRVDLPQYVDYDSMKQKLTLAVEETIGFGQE
UniProt P53622: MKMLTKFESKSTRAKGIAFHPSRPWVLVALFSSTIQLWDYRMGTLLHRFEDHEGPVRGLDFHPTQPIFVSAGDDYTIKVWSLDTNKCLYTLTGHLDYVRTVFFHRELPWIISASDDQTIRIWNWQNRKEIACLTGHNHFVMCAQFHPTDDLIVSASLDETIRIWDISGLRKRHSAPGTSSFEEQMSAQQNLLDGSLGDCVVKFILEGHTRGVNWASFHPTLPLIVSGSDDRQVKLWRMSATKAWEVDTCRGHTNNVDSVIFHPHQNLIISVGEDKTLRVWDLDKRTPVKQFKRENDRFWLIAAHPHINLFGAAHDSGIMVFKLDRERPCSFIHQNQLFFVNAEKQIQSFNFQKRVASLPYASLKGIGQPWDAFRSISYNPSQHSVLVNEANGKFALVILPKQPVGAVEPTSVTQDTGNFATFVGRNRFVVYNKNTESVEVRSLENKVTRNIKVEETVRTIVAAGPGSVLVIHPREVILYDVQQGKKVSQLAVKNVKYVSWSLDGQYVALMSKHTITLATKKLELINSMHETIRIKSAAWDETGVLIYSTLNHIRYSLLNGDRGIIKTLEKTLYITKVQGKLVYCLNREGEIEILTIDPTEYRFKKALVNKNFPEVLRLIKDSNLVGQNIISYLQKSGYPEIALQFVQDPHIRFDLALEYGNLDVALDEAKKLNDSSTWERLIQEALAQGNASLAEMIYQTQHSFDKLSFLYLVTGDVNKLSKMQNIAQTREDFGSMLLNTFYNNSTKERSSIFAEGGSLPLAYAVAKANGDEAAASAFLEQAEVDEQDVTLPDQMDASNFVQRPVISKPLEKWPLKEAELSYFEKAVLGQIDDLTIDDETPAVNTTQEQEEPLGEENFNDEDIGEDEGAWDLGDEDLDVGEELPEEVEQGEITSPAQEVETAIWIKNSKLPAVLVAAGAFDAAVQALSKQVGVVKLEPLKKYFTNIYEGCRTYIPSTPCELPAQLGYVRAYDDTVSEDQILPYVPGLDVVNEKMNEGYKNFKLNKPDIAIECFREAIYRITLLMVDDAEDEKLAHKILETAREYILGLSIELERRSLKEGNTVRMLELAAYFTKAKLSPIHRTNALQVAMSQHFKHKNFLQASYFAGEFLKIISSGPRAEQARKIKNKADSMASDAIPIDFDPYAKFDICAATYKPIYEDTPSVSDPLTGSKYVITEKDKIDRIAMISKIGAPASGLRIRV

Experiments:
[1] = target: T1, HA-tagged Sla1 protein (S. cerevisiae) (UniProt P32790); test: co-IP; immunoprecipitation with anti-HA antibody (16B12) from yeast protein extracts; total extract and IP fraction analysed by Western blotting with anti-HA and anti-coatomer (anti-COPI) antibody; done as in ref. 32
T1 sequence: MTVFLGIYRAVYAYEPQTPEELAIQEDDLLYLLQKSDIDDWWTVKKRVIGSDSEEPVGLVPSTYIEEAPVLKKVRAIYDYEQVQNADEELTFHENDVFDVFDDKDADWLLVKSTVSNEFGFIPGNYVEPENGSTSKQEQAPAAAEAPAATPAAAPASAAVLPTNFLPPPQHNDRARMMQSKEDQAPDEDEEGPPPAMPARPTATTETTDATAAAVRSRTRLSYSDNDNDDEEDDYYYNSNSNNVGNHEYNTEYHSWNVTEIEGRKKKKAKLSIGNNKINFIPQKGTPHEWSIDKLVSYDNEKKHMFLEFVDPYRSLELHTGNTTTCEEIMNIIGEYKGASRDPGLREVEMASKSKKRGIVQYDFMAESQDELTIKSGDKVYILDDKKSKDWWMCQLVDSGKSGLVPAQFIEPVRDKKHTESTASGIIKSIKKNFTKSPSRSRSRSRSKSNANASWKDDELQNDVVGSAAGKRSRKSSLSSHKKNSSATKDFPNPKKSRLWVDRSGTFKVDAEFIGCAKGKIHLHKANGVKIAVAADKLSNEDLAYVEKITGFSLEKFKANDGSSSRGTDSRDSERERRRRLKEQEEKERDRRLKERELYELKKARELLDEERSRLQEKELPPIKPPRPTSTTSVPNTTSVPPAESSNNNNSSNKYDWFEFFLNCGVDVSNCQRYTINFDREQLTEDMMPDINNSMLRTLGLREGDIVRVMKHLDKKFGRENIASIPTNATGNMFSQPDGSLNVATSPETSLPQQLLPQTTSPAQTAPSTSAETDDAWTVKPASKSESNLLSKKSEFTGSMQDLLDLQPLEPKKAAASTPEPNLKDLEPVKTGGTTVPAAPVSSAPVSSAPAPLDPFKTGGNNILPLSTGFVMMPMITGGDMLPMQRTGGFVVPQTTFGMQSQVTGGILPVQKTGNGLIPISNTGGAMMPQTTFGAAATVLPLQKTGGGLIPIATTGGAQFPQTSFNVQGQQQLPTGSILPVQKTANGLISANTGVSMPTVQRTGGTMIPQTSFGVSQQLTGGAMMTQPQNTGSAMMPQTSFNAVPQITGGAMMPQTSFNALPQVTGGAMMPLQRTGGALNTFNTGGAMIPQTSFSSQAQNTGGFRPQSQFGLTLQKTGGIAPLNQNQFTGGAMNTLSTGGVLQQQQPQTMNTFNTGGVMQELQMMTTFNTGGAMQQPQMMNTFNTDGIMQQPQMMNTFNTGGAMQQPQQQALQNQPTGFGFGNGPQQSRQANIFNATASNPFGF

[2] = target: HA-tagged Rsp5 ubiquitin ligase (S. cerevisiae) (UniProt P39940); test: as above

binding [1]: binds
binding [2]: binds
Substance: COPI complex (coatomer) (from UniProt P53622 1-1201; P41811 1-889; P40509 1-296; P32074 1-935; P41810 1-973; P53600 1-189; P43621 1-546)
